Assay results from PubChem BioAssay AID330 (DTP/NCI, 2004).
The list shows only some results of the screen, not a fair sample: it gathers tests that were run many times, whatever their T/C, doses with no T/C, and many T/C values between a quarter and a half above the control. Further doses and runs are listed elsewhere. T/C gives the treated animals as a percentage of the vehicle group. Some entries give survivors of the animals treated and no T/C: the source holds a T/C of zero for them, seemingly a mark for toxic or unscored doses. Some doses without a T/C left all or most animals alive at the check, yet need not have been tolerated: the source hardly ever lists a survival T/C far under the control, and the zero likely stands for such cases as well. Survivors were counted at the toxicity check, usually on the fifth day, unless a day is given; later deaths do not show. Schedule codes are those of the source, taken here to give the interval after Q, in days (D) or hours (H), and the number of doses after X. Some entries were tested several times; the values are given in rising order. Where survival is the endpoint, this PubChem deposit counts one and a half times the control or more as active, and values a quarter to a half above the control carry no call in these data; other NCI protocols may use other cut-offs. Some T/C values carry the count of animals alive at the toxicity check (mostly the fifth day); where none is given, no animal had died by that day.

Tested on: P388 leukemia ip, CD2F1 mice, survival T/C
Assay: NCI In Vivo Anticancer Drug Screen. Data for tumor model P388 Leukemia (intraperitoneal) in CD2F1 (CDF1) mice
Conditions: T/C endpoint: median survival time, higher T/C = longer survival
[1] = dose: 240.0 mg/kg/injection, schedule: Q01DX005 (ip), vehicle: Klucel (hydroxypropylcellulose) (HPC)
[2] = dose: 50.0 mg/kg/injection, schedule: Q01DX009 (ip), vehicle: saline with Tween-80
[3] = dose: 100.0 mg/kg/injection, schedule: Q01DX009 (ip), vehicle: saline with Tween-80
[4] = dose: 200.0 mg/kg/injection, schedule: Q01DX005 (ip), vehicle: Klucel (hydroxypropylcellulose) (HPC)
[5] = dose: 200.0 mg/kg/injection, schedule: Q01DX009 (ip), vehicle: saline with Tween-80
[6] = dose: 240.0 mg/kg/injection, schedule: Q01DX005 (ip), vehicle: saline
[7] = dose: 200.0 mg/kg/injection, schedule: Q01DX005 (ip), vehicle: saline with Tween-80

Which survivor count (dose: 400.0 mg/kg/injection, schedule: Q04DX003 (ip), vehicle: saline) does the source give for `O=c1[nH]cnc2cc3c(cc12)nc1n3CCOC1` here?
The survivor count was 2 of 6.

Which survivor count (dose: 15.0 mg/kg/injection, schedule: Q01DX005 (ip), vehicle: Klucel (hydroxypropylcellulose) (HPC)) does the source give for `CC1CCC2N(C1)CC1C3(O)CC4(O)C(CCC5C(=O)C(O)CCC54C)C3(O)CC(O)C1(O)C2(C)O` (stereo unspecified) here?
Its survivor count is 2 of 6.

And the survivor count (dose: 30.0 mg/kg/injection, schedule: Q01DX005 (ip), vehicle: Klucel (hydroxypropylcellulose) (HPC))?
The survivor count was 0 of 6.

What about the survivor count (dose: 60.0 mg/kg/injection, schedule: Q01DX005 (ip), vehicle: Klucel (hydroxypropylcellulose) (HPC)) of the same compound?
The survivor count was 0 of 6.

And the survivor count (dose: 120.0 mg/kg/injection, schedule: Q01DX005 (ip), vehicle: Klucel (hydroxypropylcellulose) (HPC))?
Its survivor count is 0 of 6.

What about the survivor count [1] of the same compound?
The survivor count was 0 of 6.

How did the survivor count (dose: 800.0 mg/kg/injection, schedule: Q01DX005 (ip), vehicle: Klucel (hydroxypropylcellulose) (HPC)) turn out when `CC1CCC(n2cnc3c(Cl)ncnc32)O1` (stereo unspecified) was run?
Its survivor count is 0 of 6.

With `C=CCN(N=Nc1ccc(Cl)cc1)c1ccc(Cl)cc1` as the compound, how does the T/C [2] read?
The T/C was 128 % of control.

And the T/C [3]?
Its T/C is 127 % of control.

How did the survivor count [3] turn out when `Clc1cc2c(nn1)Nc1ccccc1S2` was run?
Its survivor count is 6 of 6.

For `O=C1C(Cl)=C(Nc2ccc3c(c2NC2=C(Cl)C(=O)c4ccccc4C2=O)C(=O)c2ccccc2C3=O)C(=O)c2ccccc21`, which survivor count [4] is on record?
The survivor count was 3 of 5.

How did the T/C [3] turn out when `CCOC1OCN(c2ccc(Cl)cc2)CC1(C)C` (stereo unspecified) was run?
The T/C was 133 % of control.

And the T/C [5]?
The T/C was 136 % of control.

Which survivor count (dose: 50.0 mg/kg/injection, schedule: Q01DX005 (ip), vehicle: Klucel (hydroxypropylcellulose) (HPC)) does the source give for `Cc1nc2[nH]cc(-c3ccccc3)c2c(=N)n1-c1ccc(F)cc1` here?
Its survivor count is 5 of 6.

And the survivor count (dose: 100.0 mg/kg/injection, schedule: Q01DX005 (ip), vehicle: Klucel (hydroxypropylcellulose) (HPC))?
The survivor count was 0 of 6.

What about the survivor count [4] of the same compound?
Its survivor count is 0 of 6.

With `COc1cccc2c1C(=O)c1c(O)c3c(c(O)c1C2=O)C[C@@](O)(C(C)=O)CC3OC1CC(NC(=O)C(C)N)C(O)C(C)O1` (stereo partly specified) as the compound, how does the T/C (dose: 25.0 mg/kg/injection, schedule: Q04DX003 (ip), vehicle: saline) read?
The T/C was 126 % of control.

With `O=C1CCCN1.O=C1CCCN1.[Br][Co][Br]` as the compound, how does the survivor count [3] read?
The survivor count was 6 of 6.

Which results are given for `C/C(=N\N=C(\[Se])N1CCN(c2ccccn2)CC1)c1ccccn1`?
T/C (dose: 50.0 mg/kg/injection, schedule: Q04DX003 (ip), vehicle: saline with Tween-80): 126 % of control; T/C (dose: 100.0 mg/kg/injection, schedule: Q04DX003 (ip), vehicle: saline with Tween-80): 133 % of control [4 of 6 alive]; survivor count (dose: 400.0 mg/kg/injection, schedule: Q04DX003 (ip), vehicle: saline with Tween-80): 4 of 6

How did the survivor count [6] turn out when `COC(=O)C(C)CSc1ccccc1` (stereo unspecified) was run?
Its survivor count is 0 of 6.

`O=C1CC2c3ccccc3CCN2C2=C1CCC2` (stereo unspecified) was tested. Which survivor count [7] did it give?
The survivor count was 0 of 6.

With `CCC[CH2][Sn]([CH3])([CH2]CC[N+](C)(C)C)[O]C(C)=O` (stereo unspecified) as the compound, how does the survivor count (dose: 100.0 mg/kg/injection, schedule: Q01DX009 (ip), vehicle: saline) read?
Its survivor count is 0 of 6.

And the survivor count (dose: 200.0 mg/kg/injection, schedule: Q01DX009 (ip), vehicle: saline)?
The survivor count was 0 of 6.

Which results are given for `Cc1cc(N=C2C=CC(=[N+](C)C)C=C2)c(N)cc1N`?
survivor count [3]: 0 of 6; survivor count [5]: 0 of 6

What does the source list for `CC(C)CCCC(C)CCOCCN1CCCCC1` (stereo unspecified)?
survivor count (dose: 100.0 mg/kg/injection, schedule: Q01DX005 (ip), vehicle: saline with Tween-80): 3 of 6; survivor count [7]: 0 of 6

With `CC1(C)Cc2[nH]c3ccccc3c2C(C)(C)N1` as the compound, how does the survivor count (dose: 240.0 mg/kg/injection, schedule: Q01DX005 (ip), vehicle: saline with Tween-80) read?
The survivor count was 0 of 6.

Which survivor count [2] does the source give for `[O-]c1ccccc1C=NCCN1CC1.[O-]c1ccccc1C=NCCN1CC1.[Zn+2]` here?
Its survivor count is 0 of 6 and 3 of 6.

What about the survivor count [3] of the same compound?
The survivor count was 0 of 6.

And the survivor count [5]?
Its survivor count is 0 of 6.

How did the survivor count [6] turn out when `CCN(CC)CCCNC(c1ccc(OC)c(OC)c1)C(Cl)(Cl)Cl` (stereo unspecified) was run?
The survivor count was 1 of 6.

With `O=S1(=O)C(c2cccc(C(F)(F)F)c2)=C(O)c2cc3ccccc3nc21` as the compound, how does the survivor count (dose: 50.0 mg/kg/injection, schedule: Q01DX009 (ip), vehicle: saline + Tween-80 + alcohol) read?
Its survivor count is 6 of 6.

`FC(F)(F)c1ccc(-c2nn[nH]n2)cc1` was tested. Which survivor count [1] did it give?
The survivor count was 0 of 6.
